From patent publication US20120237566A1, “INHIBITING STOMACH-ACID RELEASE, REDUCING INFLAMMATION AND PREVENTING AND TREATING CANCER: COMPOSITIONS AND METHODS OF USE” (Venture Isles, LLC, priority 2011, published 2012) come the findings set out here.

For this series, the system named is sulfhydryl (—SH) groups within the gastric H, K-ATPase system. The experiment in a line: quantitation of sulfhydryl groups during Zn inhibition. The format is binding.

`[Zn+2]` [Zn, Zinc]: the “critical —SH groups involved in Zn inhibition” value was “about 3 per mole of the enzyme”. Further, the “sulfhydryl (—SH) group bound” value (Zn at 2 μM) was “about 16 n Moles per mg of membrane pro”.
